{
  "source": "patent US20040209318A1",
  "about": "“Reagents and methods for the detection and quantification of vancomycin in bilogical fluids” (priority 1995, published 2004)",
  "test_system": "monoclonal antibody #15-109-592",
  "test": "Fluorescence polarization immunoassay of the present invention, cross reactivity",
  "format": "binding, mouse",
  "conditions": "bilirubin up to 30 mg/dL, with pretreatment solution",
  "note": "For at least one compound, name, drawing or mass did not settle the structure.",
  "data": [
    {"molecule": "C=CC1=C(C)/C(=C/c2[nH]c(Cc3[nH]c(/C=C4\\NC(=O)C(C)=C4C=C)c(C)c3CCC(=O)O)c(CCC(=O)O)c2C)NC1=O", "note": "[bilirubin]", "values": [
      {"measurement": "interference", "value": "less than 5%"}
    ]}
  ]
}
